# Out of some 580,000 compounds screened, about 6,100 (1.1%) were called active. The shares of active, inactive and inconclusive entries below differ from those in the screen. Calls follow the shape of the dose curve; as a rule, active = well fitted inhibition curve with a large enough effect; inconclusive = small, poorly fitted or top-dose-only effect, or another doubt; inactive = no such curve, though single readings can be large or run the other way. Where the call is inconclusive, the potency comes from a doubtful curve fit.
# The chains behind the UniProt entries cited, without tags or fusion partners. Where a name states a change or a piece, a line headed by the entry shows the natural chain unless it says otherwise.
# UniProt P18054: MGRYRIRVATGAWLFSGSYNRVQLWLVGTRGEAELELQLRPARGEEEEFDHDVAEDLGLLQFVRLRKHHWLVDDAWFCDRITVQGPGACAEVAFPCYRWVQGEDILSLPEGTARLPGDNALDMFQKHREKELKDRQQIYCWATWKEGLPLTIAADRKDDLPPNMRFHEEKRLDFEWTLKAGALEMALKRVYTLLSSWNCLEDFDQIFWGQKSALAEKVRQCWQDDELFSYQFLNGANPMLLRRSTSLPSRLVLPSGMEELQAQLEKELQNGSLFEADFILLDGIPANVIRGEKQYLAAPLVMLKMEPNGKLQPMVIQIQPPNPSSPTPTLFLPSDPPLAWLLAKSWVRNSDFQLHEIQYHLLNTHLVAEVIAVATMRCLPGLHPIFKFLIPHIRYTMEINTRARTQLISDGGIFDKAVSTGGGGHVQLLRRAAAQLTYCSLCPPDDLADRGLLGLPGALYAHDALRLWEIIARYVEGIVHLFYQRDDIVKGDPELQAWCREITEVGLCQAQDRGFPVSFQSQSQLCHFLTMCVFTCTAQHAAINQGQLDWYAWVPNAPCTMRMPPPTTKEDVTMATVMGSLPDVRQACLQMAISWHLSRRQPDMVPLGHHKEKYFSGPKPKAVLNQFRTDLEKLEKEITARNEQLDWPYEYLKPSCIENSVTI
# Target: Polyunsaturated fatty acid lipoxygenase ALOX12 (Homo sapiens) (UniProt P18054)
# Test: Primary qHTS assay for inhibitors of human arachidonate 12S-lipoxygenase (ALOX12): Round 2
# Conditions: purified 12hLO, xylenol orange hydroperoxide absorbance; activity change, negative = inhibition: at 108 µM (top of the series) unless noted
# Procedure, shortened: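 Purified human 12hLO (150 nM final) in 25 mM Hepes, 0.01% Triton X-100, pH 7.0 was preincubated 15 min at room temperature with compound. Then 40 uM arachidonic acid was added, 30 min. Hydroperoxide was read by Fe-XO absorbance ratio 573/405 nm.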
# % is scaled to controls: 0 for no effect and ±100 for the full control effect; potency is read from the fitted curve at half-maximal effect.
Compound,Potency,"activity change, negative = inhibition"
CCOC(=O)c1ccccc1NC(=O)CN1C(=O)c2ccccc2S1(=O)=O,inactive,
N#Cc1c(N)n[nH]c1CCCNC(=O)c1ccccc1-c1ncc(-c2ccccc2)o1,inactive,
CC(=O)c1ccc(N2CCN(S(=O)(=O)c3ccc4c(c3)C(Cl)(Cl)C(=O)N4)CC2)cc1,"inconclusive: 35.5 µM [inhibitor, partial curve, poor fit]",
O=C(Cc1ccccn1)N1CCC(N2CCCCCC2=O)CC1,"inconclusive: 25.1 µM [inhibitor, full curve]",
CN1CCN(c2oc(COc3ccccc3F)nc2C#N)CC1,inactive,
CC(C)(C)OC(=O)N1CCC(NC(=O)c2nc[nH]c2C(=O)NC2CCN(C(=O)OC(C)(C)C)CC2)CC1,inactive,
COc1cc2c(cc1NC(=O)COC(=O)C(CCSC)NC(=O)c1ccccc1Cl)oc1ccccc12 (stereo unspecified),inactive,
Cc1cc(-c2nnc(SCC(=O)Nc3cccc(Cl)c3)n2N)n[nH]1,inactive,
COc1ccccc1C(=O)N1CCC2(CC1)NC(=O)N(c1cccc(F)c1)N2,active: 2.51 µM,
Cc1ccc2cc(/C=C/C(=O)c3c(C)coc3C)c(Cl)nc2c1,"inconclusive: 0.251 µM [inhibitor, full curve, poor fit]",
CC1=C(C(=O)Nc2ccccc2)C(c2ccccc2F)N=C(Nc2nc3ccccc3o2)N1 (stereo unspecified),"inconclusive: 39.8 µM [inhibitor, partial curve, poor fit]",
COc1ccc(-c2cn(-c3ccccc3)c(=S)[nH]2)cc1OC,"inconclusive: 50.1 µM [inhibitor, partial curve, poor fit]",
O=C(O)CCCCCNC(=O)OCC1c2ccccc2-c2ccccc21,"inconclusive: 89.1 µM [inhibitor, single point]",
CCc1ccc2[nH]cc(C(=O)OCCOC)c(=O)c2c1,inactive,
Oc1ccc(/C=N/Nc2ncc(Br)cn2)c(O)c1,"inconclusive: 3.55 µM [inhibitor, full curve]",
Cc1ccc2[nH]c(CCC(=O)N3CC[C@H](CO)[C@H](O)C3)nc2c1C,inactive,
O=C(Cn1cc(CNC(=O)C2CCCCC2)nn1)Nc1cc(C(F)(F)F)ccc1Cl,"inconclusive: 112 µM [inhibitor, single point]",
CCc1nnc(NC2=NCCC2)s1,"inconclusive: 3.16 µM [inhibitor, full curve, poor fit]",
COc1ccc2c(c1)CCc1sc(NC(=O)c3cccc(Br)c3)nc1-2,"inconclusive: 56.2 µM [inhibitor, partial curve, poor fit]",
O=C(c1cccs1)N1CCN(C2CCCCC2)CC1,"inconclusive: 0.891 µM [inhibitor, full curve, poor fit]",
CCCCN(CC)Cc1ccc(CNC(=O)Nc2ccc(OCC)cc2)o1,inactive,
O=C(OCc1cccc([N+](=O)[O-])c1)c1c2c(nc3ccccc13)CCCCC2,inactive,
O=C(Nc1cccc(S(=O)(=O)Nc2ccc(Cl)cc2)c1)c1ccc2c(c1)OCCO2,"inconclusive: 50.1 µM [inhibitor, partial curve, poor fit]",
C#Cc1ccc([C@@H]2C=C(C(=O)NCc3ccccc3)O[C@H](OCc3ccc(CO)cc3)C2)cc1,inactive,

Compound,Potency,"activity change, negative = inhibition"
Cc1noc(C)c1C(C)C1=CCCCC1 (stereo unspecified),inactive,
COc1ccccc1NC(=O)CCN1C(=O)c2ccccc2C1=O,inactive,
Cc1cc(C)c(C(=O)c2cccs2)c(C)c1,"inconclusive: 126 µM [inhibitor, single point]",
C=CCn1c(Cc2ccccc2)n[nH]c1=S,"inconclusive: 35.5 µM [inhibitor, partial curve, poor fit]",
COc1ccc(C(=O)N2CCC(c3nn(-c4ccc(Cl)cc4)c(=O)[nH]3)CC2)cc1,active: 35.5 µM,
CC(C)(C)C(=O)NC(c1ccccc1)c1c(O)ccc2ccccc12 (stereo unspecified),"inconclusive: 89.1 µM [inhibitor, partial curve, poor fit]",
Cc1cc(F)ccc1Oc1cc(NN2CCCCC2)c([N+](=O)[O-])cc1[N+](=O)[O-],"inconclusive: 112 µM [inhibitor, single point]",
CCC(C)(CC(=O)O)Cc1nc2ccccc2s1 (stereo unspecified),"inconclusive: 44.7 µM [inhibitor, partial curve, poor fit]",
CCN(CC)c1ccc(NC(=O)CN2CCN(c3ccccc3F)CC2)cc1,inactive,
CCNC(=S)N/N=C(/C)c1ccc(Cl)c(Cl)c1,"inconclusive: 39.8 µM [inhibitor, partial curve, poor fit]",
O=C(NCCN1CCCC1)c1ccc(Cn2c(=S)[nH]c3cc4c(cc3c2=O)OCO4)cc1,,inconclusive: -73.8% [inhibitor]
COc1ccc(C)cc1NC(=O)C(C)N1CCOCC1 (stereo unspecified),active: 11.2 µM,
CCOc1ccccc1NS(=O)(=O)c1ccc(-c2cnc(C)o2)cc1,inactive,
Cc1ccc(S(=O)(=O)/N=C(/Nc2ccc(F)cc2F)c2ccccc2)cc1,"inconclusive: 112 µM [inhibitor, single point]",
CSCCOC(=O)C1=C(C)Nc2ccc(C)cc2S1,"inconclusive: 11.2 µM [inhibitor, partial curve, poor fit]",
COc1ccc(NC(=O)Cc2nc(-c3ccccc3)oc2C)c(OC)c1,"inconclusive: 39.8 µM [inhibitor, single point]",
O=C(Nc1cccc(Cl)c1)N1CCN(c2ccc(Cl)c(Cl)c2)CC1,"inconclusive: 79.4 µM [inhibitor, partial curve, poor fit]",
O=C(O)CCSc1ccccn1,inactive,
CC(=O)N1CCCc2cc(S(=O)(=O)N3CCCC(C(=O)Nc4ccc(C)cc4C)C3)ccc21 (stereo unspecified),inactive,
O=C(Nc1ccc2nsnc2c1)c1ccc2c(c1)OCO2,"inconclusive: 15.8 µM [inhibitor, full curve, poor fit]",
COCC1CN(Cc2ccc(Br)s2)CC12CCNCC2 (stereo unspecified),"inconclusive: 28.2 µM [inhibitor, partial curve]",
Cc1ccc(Nc2nc(C(N)=O)c(NC(=O)CC(C)C)s2)cc1,"inconclusive: 5.01 µM [inhibitor, full curve]",
Cc1ccc(NS(=O)(=O)c2c(C(=O)N3CCCCCC3)c(C)n(C)c2C)c(Cl)c1,"inconclusive: 17.8 µM [inhibitor, partial curve, poor fit]",
COc1ccc(-c2cc(C(F)(F)F)nc(N3CCN(C)CC3)n2)cc1,,inconclusive: -34.8% [inhibitor]

# Already shown: an excerpt of the list.
Compound,Potency,"activity change, negative = inhibition"
Oc1ccc(/C=N/Nc2ncc(Br)cn2)c(O)c1,"inconclusive: 3.55 µM [inhibitor, full curve]",
Cc1ccc2[nH]c(CCC(=O)N3CC[C@H](CO)[C@H](O)C3)nc2c1C,inactive,
O=C(Cn1cc(CNC(=O)C2CCCCC2)nn1)Nc1cc(C(F)(F)F)ccc1Cl,"inconclusive: 112 µM [inhibitor, single point]",
CCc1nnc(NC2=NCCC2)s1,"inconclusive: 3.16 µM [inhibitor, full curve, poor fit]",
COc1ccc2c(c1)CCc1sc(NC(=O)c3cccc(Br)c3)nc1-2,"inconclusive: 56.2 µM [inhibitor, partial curve, poor fit]",
O=C(c1cccs1)N1CCN(C2CCCCC2)CC1,"inconclusive: 0.891 µM [inhibitor, full curve, poor fit]",

# More compounds:

Compound,Potency,"activity change, negative = inhibition"
COC(=O)c1cc(Cl)ccc1N,inactive,
CCCN(Cc1cc(=O)[nH]c2c(C)cc(C)cc12)C(=O)Nc1cc(Cl)c(OC)cc1OC,"inconclusive: 4.47 µM [inhibitor, full curve, poor fit]",
CN(C(=O)c1ccccc1C(=O)OCC(=O)c1ccc(Br)cc1)c1ccccc1,"inconclusive: 89.1 µM [inhibitor, partial curve, poor fit]",
COc1ccc(-n2nc3c(c2NC(=O)COc2ccccc2)CS(=O)(=O)C3)cc1,inactive,
Cc1ccc(-c2nc3cc(C(C)C)ccc3o2)cc1NC(=O)c1cccnc1,inactive,
CCCOc1ccc(C(=O)NC(=S)N2CCN(c3ncc4c(=O)c(C(=O)O)cn(CC)c4n3)CC2)cc1,"inconclusive: 7.08 µM [inhibitor, full curve]",
CCOC(=O)c1oc2cc(OC(C)=O)ccc2c(=O)c1-c1ccc(OC)cc1,"inconclusive: 44.7 µM [inhibitor, partial curve, poor fit]",
CN(C)c1cccc(Nc2nccc3c2cc(-c2cccc(F)c2)n3C)c1,"inconclusive: 50.1 µM [inhibitor, partial curve, poor fit]",
O=C1NCc2ccccc2CC12CCCN(Cc1ccc(Cl)cc1)C2 (stereo unspecified),"inconclusive: 44.7 µM [inhibitor, partial curve]",
CCOC(=O)C(=O)Nc1ccc(NC(C)=O)cc1,"inconclusive: 50.1 µM [inhibitor, partial curve, poor fit]",
COc1ccc(OC)c2sc(N(CCN(C)C)C(=O)c3ccc4ccccc4c3)nc12,"inconclusive: 50.1 µM [inhibitor, partial curve, poor fit]",
CCOC(=O)c1ccc(S(=O)(=O)Nc2cc(C(=O)O)ccc2Cl)cc1,"inconclusive: 39.8 µM [inhibitor, partial curve, poor fit]",
Cn1cccc1CN1CC[C@H]2C(=O)NCCCCCCN(Cc3ccncc3)[C@@H]2C1,inactive,
CCOCCCn1c(=S)[nH]c2cc(C(=O)N3CCOCC3)ccc2c1=O,inactive,
CC1=C(C)C(=O)C(C(CCCCCC(=O)O)c2ccccc2)=C(C)C1=O (stereo unspecified),inactive,
Cc1scc(C(=O)NNC(=S)NC(C)c2ccccc2)c1C (stereo unspecified),"inconclusive: 112 µM [inhibitor, partial curve, poor fit]",
COc1ccc(C(=O)NC(=S)NCc2ccc(-c3nc4ccccc4o3)cc2)cc1OC,inactive,
Fc1ccc(CCNC(=S)NCc2ccc(Cl)cc2)cc1,"inconclusive: 39.8 µM [inhibitor, partial curve, poor fit]",
COC(=O)c1ccc2nc(-c3ccc(OC)c(OC)c3)c(Cc3cccc(F)c3)n2c1,"inconclusive: 100 µM [inhibitor, single point]",
O=C(Cn1nnc(-c2ccccc2)n1)c1c[nH]c2ccccc12,inactive,
Cn1cc(-c2nc3cnc(N4CCNCC4)nc3n(C3CC3)c2=O)c2ccccc21,"inconclusive: 44.7 µM [inhibitor, partial curve, poor fit]",
O=C(CCCN1C(=O)/C(=C\c2ccccc2)SC1=S)N1CCOCC1,inactive,
N#Cc1nc(Cc2ccccc2)oc1N1CCN(c2cccc(Cl)c2)CC1,"inconclusive: 126 µM [inhibitor, partial curve, poor fit]",

# Source: PubChem BioAssay AID1671190 (National Center for Advancing Translational Sciences (NCATS), 2021)
